Test results: the supplement of paper PMC8612539
Converted amounts (≈) assume the structure as drawn. This continues a long series; more values of the same kind are listed elsewhere.

System: Escherichia coli
Assay: minimum inhibitory concentration (MIC)
Procedure: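 Broth microdilution MIC (Sensititre BOPO7F bovine plate, CLSI methods) of 19 antimicrobials against field isolates of P. multocida, M. haemolytica, H. somni (deep nasopharyngeal swabs) and E. coli, Enterococcus spp. (rectal swabs) from weaned dairy heifers. Incubation 16-24 h at 35 C. MIC is the lowest concentration preventing visible growth. Values with <= or > lie at the tested range limits. Trimethoprim-sulfamethoxazole is given as the trimethoprim component of a 1:19 mixture.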

CS(=O)(=O)c1ccc([C@@H](O)[C@@H](CF)NC(=O)C(Cl)Cl)cc1 [Florfenicol]
Conditions	minimum inhibitory concentration [µg/mL]
isolate (source animal id): 1	4 (≈ 11.2 µM)
isolate (source animal id): 2	> 8
isolate (source animal id): 3	4 (≈ 11.2 µM)
isolate (source animal id): 4	> 8
isolate (source animal id): 5	> 8
isolate (source animal id): 6	> 8
isolate (source animal id): 7	> 8
isolate (source animal id): 17	> 8
isolate (source animal id): 18	> 8
isolate (source animal id): 19	2 (≈ 5.58 µM)
isolate (source animal id): 20	> 8
isolate (source animal id): 21	> 8
isolate (source animal id): 22	4 (≈ 11.2 µM)
isolate (source animal id): 23	4 (≈ 11.2 µM)
isolate (source animal id): 24	> 8
isolate (source animal id): 25	> 8
isolate (source animal id): 26	4 (≈ 11.2 µM)
isolate (source animal id): 27	> 8
isolate (source animal id): 28	4 (≈ 11.2 µM)
isolate (source animal id): 29	> 8
isolate (source animal id): 30	> 8
isolate (source animal id): 31	> 8
isolate (source animal id): 32	> 8
isolate (source animal id): 33	> 8
isolate (source animal id): 34	> 8
isolate (source animal id): 35	> 8
isolate (source animal id): 36	> 8
isolate (source animal id): 37	> 8
isolate (source animal id): 38	4 (≈ 11.2 µM)
isolate (source animal id): 39	> 8
isolate (source animal id): 40	> 8
isolate (source animal id): 41	> 8
isolate (source animal id): 42	> 8
isolate (source animal id): 43	> 8
isolate (source animal id): 44	4 (≈ 11.2 µM)
isolate (source animal id): 45	> 8
isolate (source animal id): 46	> 8
isolate (source animal id): 47	> 8
isolate (source animal id): 48	> 8
isolate (source animal id): 49	> 8
isolate (source animal id): 50	> 8
isolate (source animal id): 51	> 8
isolate (source animal id): 52	2 (≈ 5.58 µM)
isolate (source animal id): 53	> 8
isolate (source animal id): 54	4 (≈ 11.2 µM)
isolate (source animal id): 55	> 8
isolate (source animal id): 56	4 (≈ 11.2 µM)
isolate (source animal id): 57	> 8
isolate (source animal id): 58	> 8
isolate (source animal id): 59	> 8
isolate (source animal id): 60	> 8
isolate (source animal id): 61	> 8
isolate (source animal id): 62	> 8
isolate (source animal id): 63	> 8
isolate (source animal id): 64	> 8
isolate (source animal id): 65	> 8
isolate (source animal id): 66	> 8
isolate (source animal id): 67	> 8
isolate (source animal id): 68	4 (≈ 11.2 µM)
isolate (source animal id): 69	> 8
isolate (source animal id): 70	> 8
isolate (source animal id): 71	> 8
isolate (source animal id): 72	> 8
isolate (source animal id): 73	4 (≈ 11.2 µM)
isolate (source animal id): 74	> 8
isolate (source animal id): 75	> 8
isolate (source animal id): 76	> 8
isolate (source animal id): 77	> 8
isolate (source animal id): 78	> 8
isolate (source animal id): 79	> 8
isolate (source animal id): 80	2 (≈ 5.58 µM)
isolate (source animal id): 81	> 8
isolate (source animal id): 82	> 8
isolate (source animal id): 83	> 8
isolate (source animal id): 84	> 8
isolate (source animal id): 85	4 (≈ 11.2 µM)
isolate (source animal id): 86	> 8
isolate (source animal id): 87	> 8
isolate (source animal id): 88	> 8
isolate (source animal id): 89	> 8
isolate (source animal id): 90	> 8
isolate (source animal id): 91	> 8
isolate (source animal id): 92	> 8
isolate (source animal id): 93	> 8
isolate (source animal id): 94	> 8
isolate (source animal id): 95	> 8
isolate (source animal id): 96	> 8
isolate (source animal id): 97	> 8
isolate (source animal id): 189	> 8
isolate (source animal id): 190	> 8
isolate (source animal id): 191	4 (≈ 11.2 µM)
isolate (source animal id): 192	> 8
isolate (source animal id): 193	> 8
isolate (source animal id): 194	4 (≈ 11.2 µM)
isolate (source animal id): 195	4 (≈ 11.2 µM)
isolate (source animal id): 196	> 8
isolate (source animal id): 197	> 8
isolate (source animal id): 198	> 8
isolate (source animal id): 199	> 8
isolate (source animal id): 200	> 8
isolate (source animal id): 201	4 (≈ 11.2 µM)
isolate (source animal id): 202	4 (≈ 11.2 µM)
isolate (source animal id): 203	> 8
isolate (source animal id): 204	4 (≈ 11.2 µM)
isolate (source animal id): 205	> 8
isolate (source animal id): 206	4 (≈ 11.2 µM)
isolate (source animal id): 207	> 8
isolate (source animal id): 208	4 (≈ 11.2 µM)
isolate (source animal id): 209	4 (≈ 11.2 µM)
isolate (source animal id): 210	4 (≈ 11.2 µM)
isolate (source animal id): 211	> 8
isolate (source animal id): 212	> 8
isolate (source animal id): 213	> 8
isolate (source animal id): 214	4 (≈ 11.2 µM)
isolate (source animal id): 215	4 (≈ 11.2 µM)
isolate (source animal id): 216	> 8
isolate (source animal id): 217	4 (≈ 11.2 µM)
isolate (source animal id): 218	4 (≈ 11.2 µM)
isolate (source animal id): 219	> 8
isolate (source animal id): 220	> 8
isolate (source animal id): 221	4 (≈ 11.2 µM)
isolate (source animal id): 222	2 (≈ 5.58 µM)
isolate (source animal id): 223	> 8
isolate (source animal id): 224	> 8
isolate (source animal id): 225	> 8
isolate (source animal id): 226	> 8
isolate (source animal id): 227	> 8
isolate (source animal id): 228	> 8
isolate (source animal id): 229	> 8
isolate (source animal id): 230	> 8
isolate (source animal id): 231	> 8
isolate (source animal id): 232	> 8
isolate (source animal id): 233	> 8
isolate (source animal id): 234	> 8
isolate (source animal id): 235	> 8
isolate (source animal id): 236	> 8
isolate (source animal id): 237	> 8
isolate (source animal id): 238	> 8
isolate (source animal id): 239	4 (≈ 11.2 µM)
isolate (source animal id): 240	> 8
isolate (source animal id): 241	> 8
isolate (source animal id): 242	4 (≈ 11.2 µM)
isolate (source animal id): 243	4 (≈ 11.2 µM)
isolate (source animal id): 244	8 (≈ 22.3 µM)
isolate (source animal id): 245	> 8
isolate (source animal id): 246	> 8
isolate (source animal id): 247	> 8
isolate (source animal id): 248	> 8
isolate (source animal id): 249	8 (≈ 22.3 µM)
isolate (source animal id): 250	4 (≈ 11.2 µM)
isolate (source animal id): 251	> 8
isolate (source animal id): 252	> 8
isolate (source animal id): 253	> 8
isolate (source animal id): 254	> 8
isolate (source animal id): 255	> 8
isolate (source animal id): 256	> 8
isolate (source animal id): 257	> 8
isolate (source animal id): 258	8 (≈ 22.3 µM)
isolate (source animal id): 259	> 8
isolate (source animal id): 260	> 8
isolate (source animal id): 261	> 8
isolate (source animal id): 262	> 8
isolate (source animal id): 263	> 8
isolate (source animal id): 264	4 (≈ 11.2 µM)
isolate (source animal id): 265	> 8
isolate (source animal id): 266	2 (≈ 5.58 µM)
isolate (source animal id): 267	> 8
isolate (source animal id): 268	> 8
isolate (source animal id): 269	> 8
isolate (source animal id): 270	> 8
isolate (source animal id): 271	> 8
isolate (source animal id): 272	4 (≈ 11.2 µM)
isolate (source animal id): 273	4 (≈ 11.2 µM)
isolate (source animal id): 274	> 8
isolate (source animal id): 275	> 8
isolate (source animal id): 276	> 8
isolate (source animal id): 277	> 8
isolate (source animal id): 278	4 (≈ 11.2 µM)
isolate (source animal id): 279	> 8
isolate (source animal id): 280	> 8
isolate (source animal id): 281	> 8
isolate (source animal id): 282	4 (≈ 11.2 µM)
isolate (source animal id): 283	8 (≈ 22.3 µM)
isolate (source animal id): 284	> 8
isolate (source animal id): 285	2 (≈ 5.58 µM)
isolate (source animal id): 286	8 (≈ 22.3 µM)
isolate (source animal id): 287	> 8
isolate (source animal id): 288	4 (≈ 11.2 µM)
isolate (source animal id): 289	2 (≈ 5.58 µM)
isolate (source animal id): 290	> 8
isolate (source animal id): 291	> 8
isolate (source animal id): 292	> 8
isolate (source animal id): 293	> 8
isolate (source animal id): 294	> 8
isolate (source animal id): 295	> 8
isolate (source animal id): 296	> 8
isolate (source animal id): 297	8 (≈ 22.3 µM)
isolate (source animal id): 298	> 8
isolate (source animal id): 299	> 8
isolate (source animal id): 300	> 8
isolate (source animal id): 301	> 8
isolate (source animal id): 302	> 8
isolate (source animal id): 303	2 (≈ 5.58 µM)
isolate (source animal id): 304	> 8
isolate (source animal id): 305	2 (≈ 5.58 µM)
isolate (source animal id): 306	4 (≈ 11.2 µM)
isolate (source animal id): 307	> 8
isolate (source animal id): 308	> 8
isolate (source animal id): 309	> 8
isolate (source animal id): 310	4 (≈ 11.2 µM)
isolate (source animal id): 311	> 8
isolate (source animal id): 312	> 8
isolate (source animal id): 313	4 (≈ 11.2 µM)
isolate (source animal id): 314	> 8
isolate (source animal id): 315	4 (≈ 11.2 µM)
isolate (source animal id): 316	> 8
isolate (source animal id): 317	> 8
isolate (source animal id): 318	> 8
isolate (source animal id): 319	> 8
isolate (source animal id): 320	4 (≈ 11.2 µM)
isolate (source animal id): 321	> 8
isolate (source animal id): 322	> 8
isolate (source animal id): 323	2 (≈ 5.58 µM)
isolate (source animal id): 324	> 8
isolate (source animal id): 325	2 (≈ 5.58 µM)
isolate (source animal id): 326	> 8
isolate (source animal id): 327	> 8
isolate (source animal id): 328	2 (≈ 5.58 µM)
isolate (source animal id): 329	> 8
isolate (source animal id): 330	> 8
isolate (source animal id): 331	> 8
isolate (source animal id): 332	4 (≈ 11.2 µM)
isolate (source animal id): 333	4 (≈ 11.2 µM)
isolate (source animal id): 334	> 8
isolate (source animal id): 335	> 8
isolate (source animal id): 336	> 8
isolate (source animal id): 337	> 8
isolate (source animal id): 338	> 8
isolate (source animal id): 339	> 8
isolate (source animal id): 340	> 8
isolate (source animal id): 341	1 (≈ 2.79 µM)
